Assay results reported in PMC5537237.
These are yes or no findings as the source states them, for the method shown. Some entries that bind do so weakly or less than the wild type.

Chains of the proteins cited; added tags and fusions are not shown.
UniProt P07355: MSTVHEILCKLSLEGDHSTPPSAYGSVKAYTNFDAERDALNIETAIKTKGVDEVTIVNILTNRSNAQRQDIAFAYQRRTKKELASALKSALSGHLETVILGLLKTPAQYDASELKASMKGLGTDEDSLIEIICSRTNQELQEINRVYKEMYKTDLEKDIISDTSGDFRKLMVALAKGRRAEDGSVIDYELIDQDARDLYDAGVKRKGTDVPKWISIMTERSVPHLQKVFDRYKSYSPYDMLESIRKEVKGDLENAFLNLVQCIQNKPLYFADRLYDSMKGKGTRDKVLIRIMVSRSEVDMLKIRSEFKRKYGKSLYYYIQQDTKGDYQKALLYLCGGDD

Biological target: His-tagged S100A10 (co-expressed with annexinA2) (UniProt P60903)
Assay: SEC-MALS; 500 µg of A2t purified from co-expression injected on a Superdex 200 column; MALLS, composition of fractions confirmed by western blotting and SDS-PAGE; both purified

With “Flag-tagged AnnexinA2 (co-expressed with S100A10) (from UniProt P07355 1-339)” the binding was “binds”.
